PubChem BioAssay AID602196, INSERM, 2012
This is a random part of about 23,000 reagents. Over the whole deposit, 455 (2%) are marked active. 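Active includes both protection and sensitisation; some change values fall well beyond the stated -50 to +50 range.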 Entries without a mark were called inactive. No sequences are given here. Not given: the amount of reagent.

Screen: 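Knock-downs that protect lung cancer cells from cisplatin or sensitise them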
Cell system: human A549 lung cancer cells
Reagent: siRNA pair against human genes
Time to read-out: 48 h transfection before cisplatin; time from cisplatin to read-out not stated
Challenge: cisplatin at a dose killing half of control-siRNA cells; exact dose and duration not given
Detection: 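Cisplatin cell death as a shift from the 50% death seen with control siRNA; siRNAs toxic or growth-blocking alone scored 0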
Direction: two-siRNA summed score (-2 to +2): higher = both siRNAs protect from cisplatin killing; -2 means both sensitise; mean protection from cisplatin (shift in death) and protection from cisplatin (shift in death), siRNA C and protection from cisplatin (shift in death), siRNA D: higher = protection from cisplatin killing
Call rule: 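Each siRNA scores 0 if harmful alone by LDH or WST-1, otherwise +1 if it reduces and -1 if it increases cisplatin killing; a gene is active when both siRNAs agree (sum +2 or -2)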
Meaning of the calls: active = both siRNAs shift cisplatin killing the same way; inactive = no consistent shift, or siRNA harmful alone

gene	two-siRNA summed score (-2 to +2)	mean protection from cisplatin (shift in death) (%)	protection from cisplatin (shift in death), siRNA C (%)	protection from cisplatin (shift in death), siRNA D (%)
TIGD3 (tigger transposable element derived 3)	1	7.7	-2	17.5
NKX1-2 (NK1 homeobox 2)	0	24.2	-2	50.5
OR6C2 (olfactory receptor family 6 subfamily C member 2)	0	15.1	18.8	11.5
LOC392862	0	1.9	-13.8	17.5
ABCG1 (ATP binding cassette subfamily G member 1)	0	4.1	15.7	-7.5
MAEA (macrophage erythroblast attacher, E3 ubiquitin ligase)	0	-10.4	3.4	-24.1
SERTAD3 (SERTA domain containing 3)	0	9.8	4	15.5
PYY (peptide YY)	0	8.4	10.5	6.2
LOC439981	1	11.4	19	3.8
ATOSB (atos homolog B)	0	-11.3	-20.4	-2.2
EPS8L2 (EPS8 signaling adaptor L2)	-1	-16.9	-30.4	-3.4
ITGAM (integrin subunit alpha M)	0	3.1	10.5	-4.4
CDHR3 (cadherin related family member 3)	0	9.5	9.9	9
LOC441423	0	8.6	7.2	10
STX10 (syntaxin 10)	0	3.1	24.3	-18.1
SBK1 (SH3 domain binding kinase 1)	0	-2.7	2.1	-7.4
PPP1R16B (protein phosphatase 1 regulatory subunit 16B)	-1	-7.4	15.7	-30.4
PPM1N (protein phosphatase, Mg2+/Mn2+ dependent 1N (putative))	0	0.2	-6.1	6.6
PANK2 (pantothenate kinase 2)	0	-4.8	-5.6	-4.1
KATNA1 (katanin catalytic subunit A1)	0	4.7	10.3	-0.8
TYW1 (tRNA-yW synthesizing protein 1 homolog)	0	6	6.8	5.2
COX5B (cytochrome c oxidase subunit 5B)	2 (active)	19.8	23.6	16.1
KRT16 (keratin 16)	-1	-4.3	-19.3	10.8
TPT1P9 (TPT1 pseudogene 9)	1	12.4	12.1	12.7
ENPP4 (ectonucleotide pyrophosphatase/phosphodiesterase 4)	0	3.9	3.9	4
ENPEP (glutamyl aminopeptidase)	1	10.8	17.2	4.5
SIX2 (SIX homeobox 2)	2 (active)	28.6	30.6	26.7
ERP29 (endoplasmic reticulum protein 29)	0	14.7	32.5	-3.1
ZNF681 (zinc finger protein 681)	0	-4.9	-1.3	-8.5
ELF5 (E74 like ETS transcription factor 5)	0	5.5	2.3	8.6
TOP2B (DNA topoisomerase II beta)	0	6.9	6.4	7.4
MRPL9 (mitochondrial ribosomal protein L9)	0	4.2	3.2	5.1
LOC388746	1	4.6	-2.7	11.8
ERGIC1 (endoplasmic reticulum-golgi intermediate compartment 1)	0	-3.6	-6.6	-0.6
OTUD7A (OTU deubiquitinase 7A)	0	5.2	10.5	0
RNF114 (ring finger protein 114)	0	3.4	4.6	2.1
ABCB10 (ATP binding cassette subfamily B member 10)	0	-21.3	-20.5	-22
HIVEP3 (HIVEP zinc finger 3)	0	1.8	4.2	-0.6
TTC39A (tetratricopeptide repeat domain 39A)	1	9.8	6.1	13.4
WBP11 (WW domain binding protein 11)	0	5.2	8.6	1.8

A portion of the results above, as a working copy:
gene	two-siRNA summed score (-2 to +2)	mean protection from cisplatin (shift in death) (%)	protection from cisplatin (shift in death), siRNA C (%)	protection from cisplatin (shift in death), siRNA D (%)
TOP2B (DNA topoisomerase II beta)	0	6.9	6.4	7.4
MRPL9 (mitochondrial ribosomal protein L9)	0	4.2	3.2	5.1
LOC388746	1	4.6	-2.7	11.8
ERGIC1 (endoplasmic reticulum-golgi intermediate compartment 1)	0	-3.6	-6.6	-0.6
OTUD7A (OTU deubiquitinase 7A)	0	5.2	10.5	0
RNF114 (ring finger protein 114)	0	3.4	4.6	2.1
ABCB10 (ATP binding cassette subfamily B member 10)	0	-21.3	-20.5	-22

Continued:
gene	two-siRNA summed score (-2 to +2)	mean protection from cisplatin (shift in death) (%)	protection from cisplatin (shift in death), siRNA C (%)	protection from cisplatin (shift in death), siRNA D (%)
DOP1B (DOP1 leucine zipper like protein B)	0	2.9	8.5	-2.7
UQCRQ (ubiquinol-cytochrome c reductase complex III subunit VII)	1	4.7	15.9	-6.5
UBE2W (ubiquitin conjugating enzyme E2 W)	1	15	29.2	0.8
LOC402230	0	7.1	8.7	5.5
PIK3CG	1	7.3	-1.9	16.6
AGXT (alanine--glyoxylate aminotransferase)	-1	-2.2	10	-14.4
ANKS1B (ankyrin repeat and sterile alpha motif domain containing 1B)	0	9	6.4	11.6
LINC02396 (long independently transcribed non-coding RNA 2396)	1	16.2	22.7	9.7
GIMAP7 (GTPase, IMAP family member 7)	0	4.9	-4.1	13.9
LOC401904	1	15.9	17.3	14.6
LOC440089	0	-1.3	-14.1	11.6
PSMB4 (proteasome 20S subunit beta 4)	0	26.2	18.2	34.1
BLK (BLK proto-oncogene, Src family tyrosine kinase)	1	18.4	30.2	6.7
PPP1R10 (protein phosphatase 1 regulatory subunit 10)	0	-0.5	-7.3	6.2
OXCT2 (3-oxoacid CoA-transferase 2)	-1	-11.2	-18.1	-4.4
PRH2 (proline rich protein HaeIII subfamily 2)	0	6.9	-0.2	13.9
LOC440090	0	20.4	11.1	29.6
CST2 (cystatin SA)	0	0.5	-0.6	1.7
HMGCLL1 (3-hydroxy-3-methylglutaryl-CoA lyase like 1)	0	4.3	7.4	1.1
GCC1 (GRIP and coiled-coil domain containing 1)	1	1.2	-14.6	17.1
DPY19L4 (dpy-19 like 4)	0	9.6	7.2	11.9
LOC388308	0	17.2	-12.5	46.9
IL10RA (interleukin 10 receptor subunit alpha)	1	-7.1	-32.9	18.6
GYS1 (glycogen synthase 1)	1	5.6	-21.1	32.2
CUZD1 (CUB and zona pellucida like domains 1)	0	1.7	0.8	2.6
CCNG2 (cyclin G2)	0	2.7	-4.4	9.9
CHD5 (chromodomain helicase DNA binding protein 5)	-1	-0.9	11.1	-13
UGCG (UDP-glucose ceramide glucosyltransferase)	0	5.8	7.7	3.9
LOC399789	0	15.3	12.4	18.1
USP5 (ubiquitin specific peptidase 5)	-1	-21.7	-11.4	-32
RAB33A (RAB33A, member RAS oncogene family)	0	-2	4.3	-8.2
LCE3E (late cornified envelope 3E)	0	1.9	3.3	0.4
GNAL (G protein subunit alpha L)	0	-5.7	-27	15.5
